Drawing on PMC10909856, this text covers binding for one molecule.

No constants are given. Whether binding was seen depends on the method and setting. In cells and extracts the contact can be indirect. Some entries that bind do so weakly or less than the wild type.

The assay has as its target T1, Dishevelled Segment Polarity Protein 2 (DVL2) (mouse (endogenous in bone marrow-derived macrophages)) (UniProt Q60838).
T1 sequence: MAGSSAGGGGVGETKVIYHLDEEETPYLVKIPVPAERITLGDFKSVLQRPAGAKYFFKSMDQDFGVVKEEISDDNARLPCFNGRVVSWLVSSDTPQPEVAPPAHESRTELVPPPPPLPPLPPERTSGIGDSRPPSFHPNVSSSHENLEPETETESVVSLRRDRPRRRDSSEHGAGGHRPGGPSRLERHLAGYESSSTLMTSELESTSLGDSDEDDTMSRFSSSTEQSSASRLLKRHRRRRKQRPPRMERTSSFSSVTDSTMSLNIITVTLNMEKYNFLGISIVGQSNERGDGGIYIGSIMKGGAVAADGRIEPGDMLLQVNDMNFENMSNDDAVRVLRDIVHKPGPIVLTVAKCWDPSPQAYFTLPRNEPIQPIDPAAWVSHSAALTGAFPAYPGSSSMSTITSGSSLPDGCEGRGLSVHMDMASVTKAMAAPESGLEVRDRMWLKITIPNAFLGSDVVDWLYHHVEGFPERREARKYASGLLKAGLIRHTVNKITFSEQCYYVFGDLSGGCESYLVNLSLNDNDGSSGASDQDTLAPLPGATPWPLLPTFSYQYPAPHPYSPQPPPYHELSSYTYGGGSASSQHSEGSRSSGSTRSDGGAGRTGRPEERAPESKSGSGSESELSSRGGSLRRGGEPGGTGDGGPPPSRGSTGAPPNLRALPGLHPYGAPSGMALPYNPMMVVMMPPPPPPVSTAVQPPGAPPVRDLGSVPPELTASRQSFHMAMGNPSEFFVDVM
Put plainly: co-IP; endogenous proteins in lysates of M1 and M2 macrophages; indicated antibodies and G/A beads, co-IP kit (absin, abs955); detection by western blot. (Immunoblotting shows a protein as a band on a membrane.)

B1: phosphoglycerate mutase 5 (PGAM5) (protein, UniProt Q8BX10 1-288)
chain: MAFRQALQLAACGLAGGSAAVLFSAVAVGKPRGGGDADTRATEPPAWTGARAGRGVWDTNWDRREPLSLINLKKRNVESGEDELTSRLDHYKAKATRHIFLIRHSQYHVDGSLEKDRTLTPLGREQAELTGLRLASLGLKFNKIVHSSMTRAVETTDIISKHLPGVSRVSTDLLREGAPIEPDPPVSHWKPEAVQYYEDGARIEAAFRNYIHRADARQEEDSYEIFICHANVIRYIVCRALQFPPEGWLRLSLNNGSITHLVIRPNGRVALRTLGDTGFMPPDKITRS
B1: the binding entry is on record as “binds”.
